According to patent publication US20100297038A1, “Benzimidazole Derivatives And Their Use As Cooling Agents” (Givaudan S.A., priority 2008, published 2010):

Experiment: Odor of the chemical (Table 1)
Parameters: species or system human
In the case of `COc1ccc(CCn2c(C)nc3ccccc32)cc1` [Example 2, 1-(4-methoxyphenethyl)-2-methyl-1H-benzo[d]imidazole], the Odor is reported as “None”.
For `CCNC(=O)C1CC(C)CCC1C(C)C` (stereo not shown) [WS-3, N-ethyl p-menthanecarboxamide], the Odor was “None”.
With `Cc1nc2ccccc2n1CCc1ccccc1` [Example 1, 2-methyl-1-phenethyl-1H-benzo[d]imidazole] the Odor was “None”.
With `CC1CCC(C(C)C)C(O)C1` (stereo not shown) [I-Menthol, I-menthol] the Odor was “Minty”.
